From PubChem BioAssay (NCATS)
Some of the results follow. These are further read-outs of the screen, such as a control signal, another cell line or another target. No call is given for them. The list favours compounds with an active or inconclusive main result. Potencies come from curve fits of mixed quality, noted in brackets.

Experiment: qHTS for identification of novel therapeutic agents for treatment of microphthalmiaassociated transcription factor (MiT) renal cell carcinoma (RCC) (AID 1963991)
Conditions: CellTiter-Glo, 48 h; for z-score: stronger effect = lower value
Outline: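 UOK109/UOK124/UOK145 (TFE3 fusions, three partners); 500 cells/well; MIPE v4.0, 1912 cpds, 11 conc.; 48 h, 37 C; CellTiter-Glo, 15 min RT; lum. Norm.: DMSO 100%, empty 0%.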

[1] = TFE3-RCC UOK109 viability, measured here: UOK109 Z-AUC
[2] = TFE3-RCC viability, measured here: UOK124 Z-AUC
[3] = TFE3-RCC viability, measured here: UOK145 Z-AUC
[4] = TFE3-RCC viability, measured here: UOK145 cell viability
[5] = TFE3-RCC viability, measured here: UOK124 cell viability

| SMILES | z-score [1] | z-score [2] | z-score [3] | AC50 [4] | AC50 [5] |
| --- | --- | --- | --- | --- | --- |
| c1cc(CN2CCCNCCNCCCNCC2)ccc1CN1CCCNCCNCCCNCC1 | 0.271 | 0.666 | 0.365 | 37.2 µM [falling, single point] |  |
| O=C(O)CCCCC(CCSCc1ccccc1)SCc1ccccc1 (stereo not given) | -0.193 | 0.225 | -0.746 | 14.8 µM [falling, partial curve, poor fit] |  |
| CCN(CC)CCOc1ccc(C(=C(Cl)c2ccccc2)c2ccccc2)cc1 | -1.55 | 0.545 | 0.378 | 23.5 µM [falling, partial curve, poor fit] |  |
| COc1ccc(-c2cc(=O)c3c(O)cc(O[C@@H]4O[C@H](CO[C@@H]5O[C@@H](C)[C@H](O)[C@@H](O)[C@@H]5O)[C@@H](O)[C@H](O)[C@@H]4O)cc3o2)cc1O | 0.594 | -1.26 | 0.456 | 18.7 µM [falling, partial curve, poor fit] |  |
| CCCCCCCc1ccc(CCc2cccc(O)c2C(=O)O)cc1 | 0.613 | -1.16 | 0.339 | 23.5 µM [falling, single point] |  |
| C[C@@H]1C(=O)O[C@H]2CC34[C@H]5C[C@@H](C(C)(C)C)C36[C@H](OC(=O)[C@@H]6O)O[C@@]4(C(=O)O5)[C@]21O (stereo not given in full) | -5.32 | 0.751 | -2.72 | 1.05 µM [rising, full curve, poor fit] |  |
| COc1cnc(NS(=O)(=O)c2ccc(N)cc2)nc1 | 0.482 | 0.11 | -0.0935 | 18.7 µM [falling, partial curve] |  |
| CCOc1ccccc1N=Nc1c(C)[nH]n(-c2nc(-c3ccccc3)cs2)c1=O | -0.114 | -0.0066 | 1.07 | 7.43 µM [falling, partial curve, poor fit] |  |
| NC(=O)[C@@H](CCC(F)(F)F)N(Cc1ccc(-c2ncon2)cc1F)S(=O)(=O)c1ccc(Cl)cc1 | 0.378 | 0.478 | 0.275 | 20.9 µM [falling, partial curve, poor fit] |  |
| CC1(C)O[C@H]2C[C@@H]3[C@H]4CCC5=CC(=O)C=C[C@]5(C)[C@@]4(F)[C@@H](O)C[C@]3(C)[C@]2(C(=O)CO)O1 | -0.476 | 0.597 | 2.65 | 33.2 µM [falling, single point] |  |
| CC(=O)O[C@]1(C(C)=O)CC[C@H]2[C@@H]3C=C(Cl)C4=CC(=O)[C@@H]5C[C@H]5[C@]4(C)[C@@H]3CC[C@@]21C | -1.46 | 0.662 | 0.193 | 33.2 µM [falling, single point] |  |
| COc1cc(NS(=O)(=O)c2ccc(N)cc2)nc(OC)n1 | 1.11 | 0.661 | -1 | 0.209 µM [rising, full curve] |  |
| Cc1ccc(/C=N/NC(=O)c2ccccc2Oc2ccccc2)o1 | 0.427 | 0.604 | 0.235 |  | 29.6 µM [falling, single point] |
| Cn1c(N2CCCCS2(=O)=O)nc(C(=O)NCc2ccc(F)cc2)c(O)c1=O | 0.401 | -0.0032 | 1.04 |  | 2.64 µM [falling, full curve, poor fit] |
| O=C1NC(=O)C(=Cc2ccc3nccnc3c2)S1 | 0.527 | -0.871 | 0.993 | 8.12 µM [falling, partial curve] |  |
| CC(C)OC(=O)CCCC=CC[C@@H]1[C@H](C=C[C@@H](O)COc2cccc(C(F)(F)F)c2)[C@H](O)C[C@@H]1O | 0.804 | 0.209 | 0.492 |  | 13.2 µM [falling, partial curve] |
| O=C1NC(=O)C(=Cc2ccc(-c3ccc(F)cc3)o2)S1 | 0.666 | 1.32 | 0.0287 | 16.6 µM [falling, partial curve, poor fit] |  |
| COc1ccnc2[nH]cc(C(=O)C(=O)N3CCN(C(=O)c4ccccc4)C[C@@H]3C)c12 | 0.796 | 0.884 | 2.45 | 0.0118 µM [falling, full curve, poor fit] |  |
| CC(C(=O)O)c1ccc(-c2ccccc2)c(F)c1 (stereo not given) | 0.688 | 0.362 | -0.547 | 16.6 µM [falling, partial curve] |  |
| CN(C)CCOc1ccc(C(=C(CCCl)c2ccccc2)c2ccccc2)cc1 | 0.245 | 0.0123 | 0.4 | 16.6 µM [falling, partial curve, poor fit] |  |
| NC(=O)c1ncn([C@@H]2O[C@H](CO)[C@@H](O)[C@@H]2O)n1 | 0.958 | 0.851 | 1.42 | 20.9 µM [falling, partial curve] |  |
| CC1(C)CCC[C@@]2(C)[C@@H]1CC[C@@]1(C)OC(=O)C[C@H]21 | 0.764 | 0.375 | 1.27 | 29.6 µM [falling, partial curve, poor fit] |  |
| CC=CC1=C(C(=O)O)N2C(=O)[C@H](NC(=O)[C@H](N)c3ccc(O)cc3)[C@@H]2SC1 | 0.752 | 0.602 | -1.44 | 0.148 µM [rising, full curve] |  |

| SMILES | z-score [1] | z-score [2] | z-score [3] | AC50 [4] | AC50 [5] |
| --- | --- | --- | --- | --- | --- |
| COc1cc(NC(=O)c2ccc(-c3ccc(Cl)cc3)o2)cc(OC)c1 | -0.462 | 0.191 | -0.366 | 8.33 µM [falling, full curve] |  |
| OCc1ccccc1O[C@@H]1O[C@H](CO)[C@H](O)[C@H](O)[C@H]1O | 0.781 | 0.556 | 0.66 |  | 0.00332 µM [rising, full curve] |
| CC(C)(C(=O)NCC(F)(F)C(F)(F)F)C(=O)N[C@@H]1C(=O)Nc2ccccc2-c2ccccc21 | -0.456 | -2.85 | 0.154 | 8.33 µM [falling, partial curve] |  |
| NC(=O)c1cccc2[nH]c(-c3ccc([C@H]4CCCN4)cc3F)nc12 | -0.017 | 0.386 | 0.393 | 37.2 µM [falling, partial curve, poor fit] |  |
| O=C1Nc2ccc(Cl)cc2C(C#CC2CC2)(C(F)(F)F)O1 (stereo not given) | 0.136 | -0.684 | -0.132 |  | 26.4 µM [falling, single point] |
| CCCOc1ccc(C(=O)OCCN(CC)CC)cc1N | 0.23 | 0.566 | 0.677 |  | 2.96 µM [falling, partial curve, poor fit] |
| CC(=O)O[C@]1(C(C)=O)CC[C@@H]2[C@@H]3C[C@H](C)C4=CC(=O)CC[C@]4(C)[C@H]3CC[C@@]21C | 0.59 | 0.371 | 1.39 | 26.4 µM [falling, partial curve] |  |
| N#Cc1ccc(NC(=O)Nc2ccccc2Br)c2n[nH]nc12 | -0.0561 | 0.714 | 0.234 | 33.2 µM [falling, single point] |  |
| Nc1nc(F)nc2c1ncn2[C@@H]1O[C@H](COP(=O)(O)O)[C@@H](O)[C@H]1O | 0.417 | 0.656 | 0.192 | 13.2 µM [falling, partial curve] |  |
| Cc1cnn(C)c1C(=O)Nc1cc(Nc2ccc3c(C=Cc4ccccn4)n[nH]c3c2)ccc1F | -0.534 | -0.264 | -1.28 | 18.7 µM [falling, partial curve] |  |
| Oc1cc(O)cc(C=Cc2ccc(O)c(O)c2)c1 | 0.568 | 1.2 | -0.0976 |  | 18.7 µM [falling, single point] |
| Cc1cc2c(F)c(Oc3ncnn4cc(OC[C@@H](C)O)c(C)c34)ccc2[nH]1 | 0.408 | 0.26 | 0.317 | 13.2 µM [falling, partial curve] |  |
| CC=CC[C@@H](C)C(=O)[C@H]1C(=O)N[C@@H](C(C)C)C(=O)N(C)CC(=O)N(C)[C@@H](CC(C)C)C(=O)N[C@@H](C(C)C)C(=O)N(C)[C@@H](CC(C)C)C(=O)N[C@@H](C)C(=O)N[C@H](C)C(=O)N(C)[C@@H](CC(C)C)C(=O)N(C)[C@@H](CC(C)C)C(=O)N(C)[C@@H](C(C)C)C(=O)N1C | 0.434 | 0.27 | 0.00707 |  | 7.43 µM [falling, full curve] |
| CN(c1nccc(=O)[nH]1)C1CCN(c2nc3ccccc3n2Cc2ccc(F)cc2)CC1 | 0.251 | 0.44 | 0.343 | 18.7 µM [falling, partial curve, poor fit] |  |
| CC(=O)OC1C(C)OC(Oc2c(-c3ccc(O)cc3)oc3cc(O)cc(O)c3c2=O)C(O)C1OC(C)=O (stereo not given) | -0.0661 | -0.252 | 1.1 | 16.6 µM [falling, partial curve, poor fit] |  |
| COC(=O)C1=CO[C@@H](O)[C@@H]2C(CO)=CC[C@@H]12 | 1.36 | 0.111 | 0.619 | 20.9 µM [falling, partial curve, poor fit] |  |
| CN1C(C(=O)Nc2ccccn2)=C(O)c2sc(Cl)cc2S1(=O)=O | 0.747 | 0.348 | 0.163 | 10.5 µM [falling, partial curve] |  |
| NC(=O)NN=Cc1ccc([N+](=O)[O-])o1 | -2.23 | 0.62 | 1.29 |  | 26.4 µM [falling, single point] |
| Cn1cc(C=CC(=O)c2cccc(F)c2)cc1C=CC(=O)NO | 0.633 | -2.59 | 0.676 | 26.4 µM [falling, single point] |  |
| C[C@@H](Cc1cc2c(c(C(N)=O)c1)N(CCCO)CC2)NCCOc1ccccc1OCC(F)(F)F | -0.308 | 0.6 | 2.8 | 0.00187 µM [rising, full curve, poor fit] |  |
| c1cc(-c2sc(-c3ccncc3)c(-c3ccncc3)c2-c2ccncc2)ccn1 | -0.0428 | 0.517 | 0.268 | 29.6 µM [falling, single point] |  |
| CCCCCN(CCC12CC3CC(CC(C3)C1)C2)C(=O)NCCCc1ccncc1 | 0.574 | -0.116 | 0.376 |  | 18.7 µM [falling, partial curve] |

Single records, from the list above.
CCCOc1ccc(C(=O)OCCN(CC)CC)cc1N reads z-score [1]: 0.23; z-score [2]: 0.566; z-score [3]: 0.677; AC50 [5]: 2.96 µM [falling, partial curve, poor fit]
O=C1NC(=O)C(=Cc2ccc3nccnc3c2)S1 reads z-score [1]: 0.527; z-score [2]: -0.871; z-score [3]: 0.993; AC50 [4]: 8.12 µM [falling, partial curve]
CC1(C)CCC[C@@]2(C)[C@@H]1CC[C@@]1(C)OC(=O)C[C@H]21 reads z-score [1]: 0.764; z-score [2]: 0.375; z-score [3]: 1.27; AC50 [4]: 29.6 µM [falling, partial curve, poor fit]
